Experiment [1] deals with T1, PRESSED FLOWER (PRS) fused to the pGBKT7 binding domain (PRS-BD) (Arabidopsis thaliana) (UniProt Q9SIB4).
T1 sequence: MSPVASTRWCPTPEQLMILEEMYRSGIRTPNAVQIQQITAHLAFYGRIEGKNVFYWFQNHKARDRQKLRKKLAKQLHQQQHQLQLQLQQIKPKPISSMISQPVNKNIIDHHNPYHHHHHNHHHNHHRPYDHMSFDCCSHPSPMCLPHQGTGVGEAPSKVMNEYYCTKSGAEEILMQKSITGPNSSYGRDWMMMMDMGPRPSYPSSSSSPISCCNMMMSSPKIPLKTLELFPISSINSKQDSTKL
As to the kind of experiment: two-hybrid.

Experiment [2] concerns the target T2, PRS-cYFP (Arabidopsis thaliana) (UniProt Q9SIB4).
T2 sequence: T1 sequence
Kind of experiment: split reporter.

Experiment [3] deals with T3, PRS-cLUC (Arabidopsis thaliana) (UniProt Q9SIB4).
T3 sequence: T1 sequence
As to the kind of experiment: split reporter.

Experimental findings from paper doi:10.1101/2024.09.30.615753 are described below.

These are yes or no findings as the source states them, for the method shown. For part of these data: In cells and extracts the contact can be indirect. Some entries that bind do so weakly or less than the wild type. Sequences can lack the tags named with a protein.

B1: … LEAVES 2 (AS2) fused to the pGADT7 activation domain (AS2-AD) (protein, UniProt O04479 1-199)
chain: MASSSTNSPCAACKFLRRKCQPECVFAPYFPPDQPQKFANVHKVFGASNVTKLLNELHPSQREDAVNSLAYEADMRLRDPVYGCVGVISLLQHQLRQLQIDLSCAKSELSKYQSLGILAATHQSLGINLLAGAADGTATAVRDHYHHHQFFPREQMFGGLDVPAGNNYDGGILAIGQITQFQQPRAAAGDDGRRTVDPS
Turning to B1, the binding entry in experiment [1] is listed as “binds”.

B2: nYFP-AS2 (protein, UniProt O04479 1-199)
chain: B1 chain
Turning to B2, in experiment [2], the binding result is reported as “binds”.

B3: AS2-nLUC (protein, UniProt O04479 1-199)
chain: B1 chain
For the molecule B3, the binding entry in experiment [3] is reported as “binds”.
